Data: PMC6739875
These are yes or no findings as the source states them, for the method shown. Binding seen in cells or lysates may run through a third protein. Some binding calls cover weakened binding; strength is not graded here. Where a sequence is shown, tags or fusion partners need not be part of it.

Molecular target: T1, FLAG-tagged EEN (EIN6 ENHANCER), in vitro translated (A. thaliana) (UniProt Q8RWS0)
T1 sequence: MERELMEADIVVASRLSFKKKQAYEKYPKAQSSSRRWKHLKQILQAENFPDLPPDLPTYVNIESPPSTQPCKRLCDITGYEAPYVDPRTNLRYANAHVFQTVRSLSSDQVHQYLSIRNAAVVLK
Experiment: pull-down; in vitro translated FLAG-EEN bound to Anti-FLAG M2 Magnetic Beads for 1 hr and washed with WP buffer (50 mM Tris HCl pH 7.5, 100 mM NaCl, 1 mM EDTA, 1% DMSO, 2 mM TCEP, 0.1% NP-40), then incubated 2 hr with in vitro translated Halo-ARP5; three washes; immunoblot with anti-FLAG and anti-Halo; only the target purified

B1: Halo-tagged ARP5 (ACTIN-RELATED PROTEIN5), in vitro translated (protein, UniProt Q940Z2 1-724)
chain: MAFVSRIRRQSDYNTYPSSIPIVIDNGASYFRIGWAGETEPRVVFRNIVQRPRHKATGETVTIVGDLDPSMMKYFDCTRSGPRSPFDSNVVYQFEIMEYILDYAFDRLGANGSGIDHPILITECACNPVQSRSKMAELLFETYGVPAVAFGVDAAFSYKYNQLHGICKKDGIVLCPGFTTTHSIPFVDGEPIYKGSSRTNIGGYHVTDYLKQLLSLKYPFHSSRFTWEKAEDLKLEHCYIAPDYASEIRLFQEGRKEAEEKTSYWQLPWIPPPTEVPPSEEEIARKAAIREKQGQRLREMAEAKRVSKINDMENQLISLRFLLKQVDQVEEDDIPTFLSDTGYASRQELESTITKVTQSLRKARGEPKNEPAEYEENPDSLNNEKYPLMNVPDDILTPEQLKDKKRQMFLKTTAEGRLRARQKRNEEELEKEKRNQLEEERRRENPESYLEELQAQYKEVLERVEQKKRLKTNGSSNGNNKSGGIGRGERLSAAQRERMRLLTTAAFDRGKGEDTFGSRDEDWQLYKLMSKDNDDDDEQPDSDEAELARLSSRLQEIDPTFVQKVEGELSQTSGEVPRVRPLTEEDYKIVIGIERFRCPEILFHPNLIGIDQVGLDEMAGTSIRRLPHDEKELEERLTSSILMTGGCSLLPGMNERLECGIRMIRPCGSPINVVRAMDPVLDAWRGASAFAANLNFLGNAFTKMDYDEKGEDWLRNYQIRYNYL
In the case of B1, the binding is reported as “binds”.
